The other results are listed elsewhere or left out. The data scatter; read single values as rough.
compound: ClCC(=O)N[C@H]1CCCc2ccccc12; experiment: log2 mean competition ratio of IA-DTB cysteine labelling (DMSO/compound) (log2 ratio); higher = stronger cysteine engagement by compound; conditions: 200 µM; treatment time: 4 h; cell line lysate: HEK293T
Description: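 IA-DTB competitive cysteine chemoproteomics in HEK293T RIPA lysate. Lysates were treated with compound 29 or 30 at 50 or 200 µM for 4 h, then IA-DTB (500 µM, 1 h), trypsin-digested, NeutrAvidin-enriched and analysed by diaPASEF. Competition ratio = intensity DMSO / intensity compound (n=4 treated, n=64 DMSO); binding: mean log2 CR ≥ 1 and p ≤ 0.05 plus QC filters. Target is the cysteine site.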

By UniProt entry, the sequences of proteins in these tests, tags left out. Where a name states a change or a piece, a line headed by the entry shows the natural chain unless it says otherwise. Residues count along the entry.
UniProt Q9UPZ3: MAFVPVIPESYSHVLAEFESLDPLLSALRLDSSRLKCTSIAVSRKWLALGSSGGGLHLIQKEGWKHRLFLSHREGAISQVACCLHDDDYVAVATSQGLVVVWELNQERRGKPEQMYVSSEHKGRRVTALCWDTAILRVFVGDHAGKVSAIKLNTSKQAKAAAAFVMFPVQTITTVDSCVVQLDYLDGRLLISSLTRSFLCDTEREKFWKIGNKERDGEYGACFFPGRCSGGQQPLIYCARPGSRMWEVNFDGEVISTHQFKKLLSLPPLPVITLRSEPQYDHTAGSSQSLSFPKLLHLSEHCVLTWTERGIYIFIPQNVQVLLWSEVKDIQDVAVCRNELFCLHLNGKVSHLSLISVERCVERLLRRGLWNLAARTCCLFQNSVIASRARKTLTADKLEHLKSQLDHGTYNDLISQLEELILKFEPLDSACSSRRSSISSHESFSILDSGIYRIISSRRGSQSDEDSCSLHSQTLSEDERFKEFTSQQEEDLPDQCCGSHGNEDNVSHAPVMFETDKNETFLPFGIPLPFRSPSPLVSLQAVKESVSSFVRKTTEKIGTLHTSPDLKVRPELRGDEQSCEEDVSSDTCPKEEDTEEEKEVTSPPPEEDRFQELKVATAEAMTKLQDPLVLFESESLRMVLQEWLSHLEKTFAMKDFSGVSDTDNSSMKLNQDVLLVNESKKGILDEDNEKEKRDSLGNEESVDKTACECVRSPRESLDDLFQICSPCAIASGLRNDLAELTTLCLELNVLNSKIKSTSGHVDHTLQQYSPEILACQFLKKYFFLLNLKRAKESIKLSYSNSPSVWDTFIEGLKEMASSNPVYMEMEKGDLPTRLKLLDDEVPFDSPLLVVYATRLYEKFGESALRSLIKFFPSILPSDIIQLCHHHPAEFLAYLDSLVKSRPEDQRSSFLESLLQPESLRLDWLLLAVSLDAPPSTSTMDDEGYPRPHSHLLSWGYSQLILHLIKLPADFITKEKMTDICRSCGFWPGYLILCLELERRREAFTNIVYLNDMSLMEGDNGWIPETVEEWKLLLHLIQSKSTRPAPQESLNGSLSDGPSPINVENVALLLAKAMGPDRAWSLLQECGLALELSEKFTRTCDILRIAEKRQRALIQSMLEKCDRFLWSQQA
UniProt O95373, whole entry, looked up: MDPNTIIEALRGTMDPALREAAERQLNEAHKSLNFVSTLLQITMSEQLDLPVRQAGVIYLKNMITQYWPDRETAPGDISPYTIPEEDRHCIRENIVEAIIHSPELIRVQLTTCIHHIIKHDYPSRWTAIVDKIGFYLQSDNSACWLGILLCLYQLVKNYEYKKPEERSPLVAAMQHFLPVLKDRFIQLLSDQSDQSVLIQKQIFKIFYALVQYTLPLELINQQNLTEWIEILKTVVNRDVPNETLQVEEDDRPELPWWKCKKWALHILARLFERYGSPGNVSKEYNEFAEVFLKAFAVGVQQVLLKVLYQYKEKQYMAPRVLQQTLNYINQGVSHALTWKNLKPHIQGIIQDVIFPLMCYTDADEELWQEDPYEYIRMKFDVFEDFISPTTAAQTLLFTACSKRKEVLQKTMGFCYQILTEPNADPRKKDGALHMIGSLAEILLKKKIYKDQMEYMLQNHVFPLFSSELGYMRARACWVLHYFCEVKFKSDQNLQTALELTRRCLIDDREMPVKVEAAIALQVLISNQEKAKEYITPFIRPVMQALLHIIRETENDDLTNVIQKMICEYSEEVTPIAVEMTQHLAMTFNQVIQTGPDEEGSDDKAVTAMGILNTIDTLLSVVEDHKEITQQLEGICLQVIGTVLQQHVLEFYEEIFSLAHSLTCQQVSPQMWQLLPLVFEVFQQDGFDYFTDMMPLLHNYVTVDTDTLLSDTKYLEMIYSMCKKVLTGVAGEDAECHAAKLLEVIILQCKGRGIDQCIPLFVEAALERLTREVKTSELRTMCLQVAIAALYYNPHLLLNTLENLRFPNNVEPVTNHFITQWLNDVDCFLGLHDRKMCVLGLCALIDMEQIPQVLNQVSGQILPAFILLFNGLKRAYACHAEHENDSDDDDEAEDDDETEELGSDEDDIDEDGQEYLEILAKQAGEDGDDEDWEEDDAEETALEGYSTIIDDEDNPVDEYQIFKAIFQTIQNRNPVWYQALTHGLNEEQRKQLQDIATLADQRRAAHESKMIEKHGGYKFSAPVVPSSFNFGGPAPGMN
UniProt P78552: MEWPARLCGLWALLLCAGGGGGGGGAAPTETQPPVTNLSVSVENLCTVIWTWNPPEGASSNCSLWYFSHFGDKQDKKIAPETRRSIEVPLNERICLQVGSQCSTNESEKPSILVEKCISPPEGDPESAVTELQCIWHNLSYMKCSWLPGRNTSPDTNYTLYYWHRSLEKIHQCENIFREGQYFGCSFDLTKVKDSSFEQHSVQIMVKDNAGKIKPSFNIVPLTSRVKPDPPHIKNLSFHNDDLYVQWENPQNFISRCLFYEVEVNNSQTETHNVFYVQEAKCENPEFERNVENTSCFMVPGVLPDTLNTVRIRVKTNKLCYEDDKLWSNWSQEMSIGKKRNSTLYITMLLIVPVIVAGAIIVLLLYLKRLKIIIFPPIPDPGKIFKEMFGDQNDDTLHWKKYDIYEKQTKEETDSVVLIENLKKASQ
UniProt O43719: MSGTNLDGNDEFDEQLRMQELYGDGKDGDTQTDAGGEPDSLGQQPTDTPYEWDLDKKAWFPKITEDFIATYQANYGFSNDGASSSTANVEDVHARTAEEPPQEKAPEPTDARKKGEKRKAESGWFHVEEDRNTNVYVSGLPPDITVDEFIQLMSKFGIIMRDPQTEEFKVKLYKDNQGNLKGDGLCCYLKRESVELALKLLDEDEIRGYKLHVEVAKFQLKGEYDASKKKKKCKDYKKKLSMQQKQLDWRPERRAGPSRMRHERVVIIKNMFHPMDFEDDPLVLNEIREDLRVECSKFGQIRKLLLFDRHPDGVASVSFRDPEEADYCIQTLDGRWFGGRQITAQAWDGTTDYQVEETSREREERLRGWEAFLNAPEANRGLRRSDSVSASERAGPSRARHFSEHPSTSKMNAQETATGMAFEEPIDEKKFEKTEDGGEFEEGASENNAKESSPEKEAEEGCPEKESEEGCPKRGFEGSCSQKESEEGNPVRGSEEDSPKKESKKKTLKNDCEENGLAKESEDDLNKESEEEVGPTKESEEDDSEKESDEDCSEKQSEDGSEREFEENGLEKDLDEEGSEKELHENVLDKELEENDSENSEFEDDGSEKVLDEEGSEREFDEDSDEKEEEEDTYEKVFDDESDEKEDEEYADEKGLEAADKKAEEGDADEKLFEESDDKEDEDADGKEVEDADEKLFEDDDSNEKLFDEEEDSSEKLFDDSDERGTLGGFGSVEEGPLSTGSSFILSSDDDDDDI
UniProt Q13123, 259-281: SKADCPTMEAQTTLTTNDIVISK
UniProt Q8WYA0: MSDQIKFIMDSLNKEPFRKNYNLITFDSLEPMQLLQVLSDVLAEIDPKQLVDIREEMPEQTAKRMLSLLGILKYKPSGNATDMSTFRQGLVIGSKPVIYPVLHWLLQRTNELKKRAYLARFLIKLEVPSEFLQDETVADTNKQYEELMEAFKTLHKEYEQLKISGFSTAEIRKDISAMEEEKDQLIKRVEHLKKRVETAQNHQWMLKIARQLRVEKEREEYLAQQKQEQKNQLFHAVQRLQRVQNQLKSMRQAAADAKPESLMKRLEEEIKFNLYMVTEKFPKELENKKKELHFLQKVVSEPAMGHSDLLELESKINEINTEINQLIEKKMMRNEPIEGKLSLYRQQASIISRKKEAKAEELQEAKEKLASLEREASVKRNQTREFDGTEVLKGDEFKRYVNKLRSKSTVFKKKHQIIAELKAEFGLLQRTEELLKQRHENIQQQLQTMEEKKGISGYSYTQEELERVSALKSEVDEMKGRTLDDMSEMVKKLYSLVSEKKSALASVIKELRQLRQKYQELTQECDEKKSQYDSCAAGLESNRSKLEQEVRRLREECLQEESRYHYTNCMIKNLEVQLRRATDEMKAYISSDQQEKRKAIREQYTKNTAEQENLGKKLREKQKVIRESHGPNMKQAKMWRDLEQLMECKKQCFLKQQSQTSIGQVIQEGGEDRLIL
UniProt P50213: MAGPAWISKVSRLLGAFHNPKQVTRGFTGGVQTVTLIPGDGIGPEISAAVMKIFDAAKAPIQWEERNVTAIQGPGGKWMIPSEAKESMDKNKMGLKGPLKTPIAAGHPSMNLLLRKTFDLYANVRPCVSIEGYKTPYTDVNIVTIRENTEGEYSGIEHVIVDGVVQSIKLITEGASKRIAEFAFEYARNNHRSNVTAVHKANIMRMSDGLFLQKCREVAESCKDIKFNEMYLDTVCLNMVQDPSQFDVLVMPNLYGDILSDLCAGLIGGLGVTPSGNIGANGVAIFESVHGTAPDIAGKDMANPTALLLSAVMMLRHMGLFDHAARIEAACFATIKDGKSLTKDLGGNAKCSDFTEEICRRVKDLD
UniProt Q6DN90, 196-224: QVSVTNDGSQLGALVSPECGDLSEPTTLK
UniProt O75874, whole entry, looked up: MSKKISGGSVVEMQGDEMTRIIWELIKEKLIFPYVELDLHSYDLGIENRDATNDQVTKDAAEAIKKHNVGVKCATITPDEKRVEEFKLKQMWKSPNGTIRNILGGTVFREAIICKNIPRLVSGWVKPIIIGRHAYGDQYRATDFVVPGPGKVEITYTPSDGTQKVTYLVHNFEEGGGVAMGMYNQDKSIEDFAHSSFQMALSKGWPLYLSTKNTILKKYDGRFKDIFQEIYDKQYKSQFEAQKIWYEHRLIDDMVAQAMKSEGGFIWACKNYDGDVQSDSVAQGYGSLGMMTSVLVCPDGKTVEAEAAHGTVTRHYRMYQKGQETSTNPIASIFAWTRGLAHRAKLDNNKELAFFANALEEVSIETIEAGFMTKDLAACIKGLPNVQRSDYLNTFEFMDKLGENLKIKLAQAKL
UniProt Q27J81, whole entry, looked up: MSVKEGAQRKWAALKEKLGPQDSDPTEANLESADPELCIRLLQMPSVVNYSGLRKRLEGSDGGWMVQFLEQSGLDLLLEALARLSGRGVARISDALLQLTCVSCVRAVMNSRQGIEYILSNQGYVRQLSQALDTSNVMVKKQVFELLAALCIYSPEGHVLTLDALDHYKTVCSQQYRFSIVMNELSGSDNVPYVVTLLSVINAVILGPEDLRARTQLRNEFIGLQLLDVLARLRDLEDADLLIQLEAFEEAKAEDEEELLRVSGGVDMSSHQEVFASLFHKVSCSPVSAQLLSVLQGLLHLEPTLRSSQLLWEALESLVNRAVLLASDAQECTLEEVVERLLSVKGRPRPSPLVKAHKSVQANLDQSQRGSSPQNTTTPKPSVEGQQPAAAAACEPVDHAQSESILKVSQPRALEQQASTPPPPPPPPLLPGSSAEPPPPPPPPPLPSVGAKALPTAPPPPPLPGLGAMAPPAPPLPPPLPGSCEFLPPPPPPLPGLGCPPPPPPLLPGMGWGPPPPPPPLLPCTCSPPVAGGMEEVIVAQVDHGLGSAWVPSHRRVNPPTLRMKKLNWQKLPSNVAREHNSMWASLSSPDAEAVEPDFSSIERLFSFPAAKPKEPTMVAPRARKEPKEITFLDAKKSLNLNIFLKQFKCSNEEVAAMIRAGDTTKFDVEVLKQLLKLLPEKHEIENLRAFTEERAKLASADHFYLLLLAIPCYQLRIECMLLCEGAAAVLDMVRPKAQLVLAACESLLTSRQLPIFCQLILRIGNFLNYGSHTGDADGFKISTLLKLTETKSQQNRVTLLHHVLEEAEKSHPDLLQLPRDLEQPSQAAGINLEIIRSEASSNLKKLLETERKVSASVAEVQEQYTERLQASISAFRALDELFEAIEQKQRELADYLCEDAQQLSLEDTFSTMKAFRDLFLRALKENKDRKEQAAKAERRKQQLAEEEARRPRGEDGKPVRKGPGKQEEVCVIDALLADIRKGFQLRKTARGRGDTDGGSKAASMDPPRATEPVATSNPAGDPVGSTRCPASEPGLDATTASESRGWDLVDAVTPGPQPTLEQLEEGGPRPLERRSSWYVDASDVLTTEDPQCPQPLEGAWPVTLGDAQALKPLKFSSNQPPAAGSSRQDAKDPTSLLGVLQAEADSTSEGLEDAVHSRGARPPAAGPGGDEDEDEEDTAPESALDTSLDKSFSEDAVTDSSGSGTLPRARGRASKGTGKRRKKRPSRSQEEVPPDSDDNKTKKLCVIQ
UniProt A1L0T0, 557-577: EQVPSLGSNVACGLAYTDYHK
UniProt Q9BT40: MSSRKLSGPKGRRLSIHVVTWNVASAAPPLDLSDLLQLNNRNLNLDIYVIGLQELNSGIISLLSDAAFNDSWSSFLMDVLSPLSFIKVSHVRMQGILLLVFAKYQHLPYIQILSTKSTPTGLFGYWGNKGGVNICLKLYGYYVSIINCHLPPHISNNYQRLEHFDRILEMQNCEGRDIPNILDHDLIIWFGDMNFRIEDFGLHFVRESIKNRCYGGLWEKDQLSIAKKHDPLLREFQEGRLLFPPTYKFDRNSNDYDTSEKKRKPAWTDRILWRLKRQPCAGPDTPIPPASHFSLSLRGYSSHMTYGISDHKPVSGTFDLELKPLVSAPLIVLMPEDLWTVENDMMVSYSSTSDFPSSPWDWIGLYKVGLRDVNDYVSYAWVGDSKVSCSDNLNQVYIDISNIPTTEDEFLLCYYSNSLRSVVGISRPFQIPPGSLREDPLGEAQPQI

Target	log2 mean competition ratio
HPS5 C222 (UniProt Q9UPZ3)	0.374
IFRD1 C178 (UniProt O00458)	0.121
IQGAP3 C919 (UniProt Q86VI3)	0.0814
IMPDH1 C215 (UniProt P20839)	0.169
HTT C1961 (UniProt P42858)	-0.177
IPO7 C749 (UniProt O95373)	0.0801
IFT172 C1727 (UniProt Q9UG01)	0.0584
INTS5 C5 (UniProt Q6P9B9)	-0.234
IL13RA1 C282 (UniProt P78552)	0.178
ID1 C17 (UniProt P41134)	-0.166
HTATSF1 C471 (UniProt O43719)	0.518
HTT C942 (UniProt P42858)	-0.0425
IK C263 (UniProt Q13123)	-0.468
INTS1 C1866 (UniProt Q8N201)	0.244
IFT81 C648 (UniProt Q8WYA0)	0.236
IFT172 C1430 (UniProt Q9UG01)	0.102
IDH3A C222 (UniProt P50213)	0.228
IQSEC1 C214 (UniProt Q6DN90)	-0.304
HPCAL1 C185 (UniProt P37235)	0.238

At a glance, some entries already given.
Target	log2 mean competition ratio
IK C263 (UniProt Q13123)	-0.468
INTS1 C1866 (UniProt Q8N201)	0.244

Next entries

Target	log2 mean competition ratio
IPO4 C797 (UniProt Q8TEX9)	0.0919
IDH1 C73 (UniProt O75874)	-0.0325
HSPA4 C245 (UniProt P34932)	-0.00913
INTS10 C270 (UniProt Q9NVR2)	0.0684
HPS4 C183 (UniProt Q9NQG7)	0.136
IPO4 C708 (UniProt Q8TEX9)	-0.182
HSPA4 C270 (UniProt P34932)	0.358
INF2 C172 (UniProt Q27J81)	-0.153
INF2 C1029 (UniProt Q27J81)	-0.253
IFT81 C535 (UniProt Q8WYA0)	-0.131
ICA1L C124	0.073
IQGAP1 C1534 (UniProt P46940)	0.0577
ILVBL C568 (UniProt A1L0T0)	-0.0347
HROB C236	0.208
INPP5K C173 (UniProt Q9BT40)	-0.0586
IQGAP3 C1515 (UniProt Q86VI3)	-0.143
IREB2 C178 (UniProt P48200)	0.328
IMMT C603	-0.116
HOXD13 C40	-0.0328
